# Data: patent US20240315991A1, “USES OF HNF4 ALPHA AGONISTS” (Sanford Burnham Prebys Medical Discovery Institute, priority 2023, published 2024)
# Entries after “also recorded” stand apart in the source; their conditions may differ.
# Tested on: C57BL/6 mice fed high fat diet (HFD)
# Test: HFD induced weight gain and hepatic steatosis, NCT in HFD chow for 10 weeks
# Type: in vivo
# Conditions: HFD+NCT vs HFD
# Procedure: NCT oral administration. Four-week-old male C57BL/6J (JAX cat #000664) mice were purchased from Jackson laboratory and were maintained in a 12 h light/dark cycle throughout the experiment. Prior to the experiments, mice were acclimated for 2 weeks. Six-week-old mice with similar body weights were randomized to a normal diet (NC), a high fat diet (HFD) (Research Diets, cat #D12492 60 kcal % fat) or HFD containing 4000 ppm NCT (HFD+NCT) (Research Diets, 60 kcal % fat+4000 ppm NCT), which was calculated to provide approximately 400 mg/kg/d NCT. HFD chow containing NCT was made with gray dye to distinguish it from regular HFD chow that had green dye. […] Body weight gain and food intake were measured every week for 10 weeks. […]
# Sample collection. […] Mice were dissected aseptically and liver, epididymal fat, and body weights were measured and pictures taken. […]
# Oil Red O staining (in vivo) and analysis. […] The liver area stained with oil red O was measured using image J software as described, with some modifications as follow, Oil red O-stained liver images were opened in Image J software. […] Fold change was calculated by normalizing the values to images from mice fed normal chow.
# Triglyceride analysis. The TG level in mouse liver, serum, and stool was measured according to manufacturer's instructions using the Triglyceride calorimetric Assay Kit (Cat #10010303, Cayman Chemicals, USA). […]
compound,measurement,setting,value
"O=C(/C=C/c1ccc(O)c(O)c1)NCCc1ccc(O)cc1 [NCT, N-trans caffeoyltyramine]",chow consumption per cage,measured every week for 10 weeks,non-significant; also recorded: no difference
same,stool triglyceride (TG) level,normalized to stool dry weight,non-significant; also recorded: equal
